Two sequences from article PMC3284512 can be followed below.

The chains behind the UniProt entries cited, without tags or fusion partners. Where a name states a change or a piece, a line headed by the entry shows the natural chain unless it says otherwise. Residues count along the entry.
UniProt P15941: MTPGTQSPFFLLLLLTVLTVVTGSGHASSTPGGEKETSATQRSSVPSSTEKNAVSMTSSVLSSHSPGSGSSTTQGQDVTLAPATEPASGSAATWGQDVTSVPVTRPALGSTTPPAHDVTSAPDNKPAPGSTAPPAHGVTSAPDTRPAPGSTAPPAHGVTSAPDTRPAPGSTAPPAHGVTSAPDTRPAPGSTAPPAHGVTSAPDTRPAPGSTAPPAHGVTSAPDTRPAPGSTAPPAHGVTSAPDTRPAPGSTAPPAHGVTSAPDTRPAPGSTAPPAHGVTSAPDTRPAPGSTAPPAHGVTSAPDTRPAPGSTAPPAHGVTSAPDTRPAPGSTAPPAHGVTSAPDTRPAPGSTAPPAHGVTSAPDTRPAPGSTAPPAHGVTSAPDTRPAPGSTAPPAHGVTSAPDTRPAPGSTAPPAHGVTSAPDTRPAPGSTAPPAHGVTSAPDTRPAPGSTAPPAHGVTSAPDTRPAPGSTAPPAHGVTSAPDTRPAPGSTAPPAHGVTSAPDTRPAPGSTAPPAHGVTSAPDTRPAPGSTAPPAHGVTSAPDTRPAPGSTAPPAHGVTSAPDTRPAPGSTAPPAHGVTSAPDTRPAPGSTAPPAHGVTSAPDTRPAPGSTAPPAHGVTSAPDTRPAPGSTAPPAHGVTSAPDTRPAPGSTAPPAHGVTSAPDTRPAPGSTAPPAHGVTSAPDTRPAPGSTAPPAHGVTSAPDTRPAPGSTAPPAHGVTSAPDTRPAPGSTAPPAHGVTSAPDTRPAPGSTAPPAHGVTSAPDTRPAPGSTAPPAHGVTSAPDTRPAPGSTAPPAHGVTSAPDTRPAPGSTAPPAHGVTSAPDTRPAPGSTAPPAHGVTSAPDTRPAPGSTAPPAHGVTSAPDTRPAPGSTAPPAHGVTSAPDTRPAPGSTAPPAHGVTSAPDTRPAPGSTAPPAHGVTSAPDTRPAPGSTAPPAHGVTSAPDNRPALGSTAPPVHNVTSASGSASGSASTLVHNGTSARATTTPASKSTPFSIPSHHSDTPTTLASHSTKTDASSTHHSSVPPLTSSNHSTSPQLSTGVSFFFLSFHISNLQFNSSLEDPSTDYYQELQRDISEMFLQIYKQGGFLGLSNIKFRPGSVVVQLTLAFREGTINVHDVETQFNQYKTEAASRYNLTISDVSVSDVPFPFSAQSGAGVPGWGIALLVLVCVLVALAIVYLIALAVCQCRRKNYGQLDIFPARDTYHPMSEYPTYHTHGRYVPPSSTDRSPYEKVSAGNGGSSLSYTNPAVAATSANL
UniProt P02769, 25-607: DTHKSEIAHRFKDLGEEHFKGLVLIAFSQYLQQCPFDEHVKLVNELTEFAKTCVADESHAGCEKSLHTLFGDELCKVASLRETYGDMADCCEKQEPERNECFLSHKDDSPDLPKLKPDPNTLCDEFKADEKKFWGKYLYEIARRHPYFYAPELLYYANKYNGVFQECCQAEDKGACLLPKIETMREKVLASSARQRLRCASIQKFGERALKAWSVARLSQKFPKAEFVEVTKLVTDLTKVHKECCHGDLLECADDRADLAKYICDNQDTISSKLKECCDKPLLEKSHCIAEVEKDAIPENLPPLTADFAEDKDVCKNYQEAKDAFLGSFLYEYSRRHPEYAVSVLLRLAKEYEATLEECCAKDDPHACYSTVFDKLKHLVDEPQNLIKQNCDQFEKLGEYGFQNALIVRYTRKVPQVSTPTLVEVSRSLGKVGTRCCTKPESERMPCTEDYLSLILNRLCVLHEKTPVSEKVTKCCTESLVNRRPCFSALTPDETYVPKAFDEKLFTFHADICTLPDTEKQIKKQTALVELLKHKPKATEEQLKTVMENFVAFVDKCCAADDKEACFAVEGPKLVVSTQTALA

For some of these results: A negative result means that nothing was seen under these conditions. For some of these results: For at least one entry, the source does not settle the construct or the ends of the probe. For some of these results: Results from cells or extracts need not show a direct contact.

In one data set the target is MUC1 on A549 cells (UniProt P15941). Put plainly: flow cytometry, cell binding. The following applies: A549 cells, Hanks buffer (binding buffer), 37 C, 30 min, 200 ul, aptamer DNA heated 95 C 5 min then cooled to 0 C (stated for SELEX pool and Dox loading), pH not stated, protein on the cell surface, single-stranded DNA. Background: A flow cytometer gives signals particle by particle.

A further data set addresses MUC1 on MCF-7 cells (UniProt P15941). As to the kind of experiment: flow cytometry, cell binding. The following applies: MCF-7 cells; Hanks buffer (binding buffer), 37 C, 30 min, 200 ul; aptamer DNA heated 95 C 5 min then cooled to 0 C (stated for SELEX pool and Dox loading); pH not stated; protein on the cell surface; label: 5'-FITC; single-stranded DNA.
The target in data set [1] is Bovine serum albumin (bovine) (UniProt P02769). As to the kind of experiment: flow cytometry, bead binding. The following applies: relatively weak signal, similar to random DNA; Hanks buffer (binding buffer), 37 C, 30 min, 200 ul; aptamer DNA heated 95 C 5 min then cooled to 0 C (stated for SELEX pool and Dox loading); pH not stated; commercial protein; protein details: EDC-coupled to magnetic beads; label: 5'-FITC; single-stranded DNA.

With “AACCGCCCAAATCCCTAAGAGTCGGACTGCAACCTATGCTATCGTTGATGTCTGTCCAAGCAACACAGACACACTACACACGCACA [MA3-doxorubicin complex (Apt-Dox)]”, the binding result with MUC1 on A549 cells (doxorubicin-loaded, similar to MA3 alone, doxorubicin intercalated (non-covalent), label: FITC) is “binds”.
For “AACCGCCCAAATCCCTAAGAGTCGGACTGCAACCTATGCTATCGTTGATGTCTGTCCAAGCAACACAGACACACTACACACGCACA [MA3]”, the binding result with MUC1 on A549 cells (significantly reduced by MUC1 siRNA, not by control siRNA, MUC1-negative HepG2 and L02 similar to random DNA, label: 5'-FITC) was “binds”; with MUC1 on MCF-7 cells it was “binds”; in data set [1] it was “no binding”.
